Earlier results in patent publication EP0374532B1, “Improved phase separation-microencapsulated pharmaceutical compositions useful for alleviating dental disease” (AMERICAN CYANAMID COMPANY, priority 1988, dated 1990).
At least one structure is not confirmed: it was looked up by name or label, or the drawing left a doubt.

Tested on: organisms associated with periodontal disease

In the case of `CN(C)c1ccc(O)c2c1C[C@H]1C[C@H]3[C@H](N(C)C)C(O)=C(C(N)=O)C(=O)[C@@]3(O)C(O)=C1C2=O` [minocycline, 7-dimethylamino-6-deoxy-6-demethyltetracycline], the “Minimum Inhibitory Concentrations (MIC's)” value is listed as “.05-1.56 µg/ml (mcg/ml)”.
